Assay results as given in patent US20180313827A1.
These are yes or no findings as the source states them, for the method shown. Some binding calls cover weakened binding; strength is not graded here.

By UniProt entry, the sequences of proteins in these tests, tags left out. Residues count along the entry.
UniProt Q9NQI0, residues 1-236: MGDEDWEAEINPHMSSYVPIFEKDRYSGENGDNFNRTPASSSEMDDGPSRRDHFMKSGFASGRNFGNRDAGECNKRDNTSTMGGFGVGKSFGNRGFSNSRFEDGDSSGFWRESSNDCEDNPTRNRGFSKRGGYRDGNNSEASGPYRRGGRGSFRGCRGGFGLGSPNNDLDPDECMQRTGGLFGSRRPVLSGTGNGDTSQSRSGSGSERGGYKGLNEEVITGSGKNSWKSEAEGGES

Target: hDdx4_synth_1_YFP_in_pETM30_2HTb (Ddx4 protein in which the DEAD-box helicase domain is replaced with YFP) (human)
Experiment: co-expression in cultured cells, fluorescence microscopy (co-localisation in organelles)

binding: binds
Substance: Ddx4 1-236CFP (from UniProt Q9NQI0 1-236)
